# Source: PubChem BioAssay AID1259308 (NCATS, 2017)
# Screen: 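Knock-downs that increase output of a recombinant reporter protein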 (primary screen)
# Cells: human HEK293 embryonic kidney cells stably expressing firefly luciferase (HEK-CMV-Luc2-Hygro)
# Knock-down reagent: single siRNA against human genes, 0.8 pmol siRNA per well
# Time to read-out: 72 h
# Measured: 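Luciferase light (ONE-Glo) measured on one replicate plate set and viability (CellTiter-Glo) on the other, scaled to a negative control siRNA, with robust z-scores and luciferase per cell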
# Direction: total luciferase, z-score and total luciferase, % of control: higher = more reporter protein produced; luciferase per cell, z-score: higher = more reporter output per viable cell; viable cells, % of control: higher = more viable cells
# Active means: 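Active when the median/MAD z-score for overall luciferase is greater than 3; a gene was taken forward for validation with new siRNAs if at least two of its three siRNAs passed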
# Calls: active = raised luciferase; inactive = no rise
# The whole screen tested about 59,000 reagents; this is a part drawn at random. About 1,510 of all reagents (2.6%) count as active. 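Calls use total luciferase alone and ignore viability, so some active siRNAs may act by altering cell number.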 Reagents against one gene are numbered here.
gene,reagent,"total luciferase, z-score","total luciferase, % of control","luciferase per cell, z-score","viable cells, % of control",activity call
MRPL40,1,-1.02,61.7,-0.928,88,inactive
MRPL40,2,-1.84,45.3,-1.65,78.2,inactive
MRPL40,3,0.747,96.7,1.02,82.7,inactive
BNIP1,1,1.93,120,0.98,104,inactive
BNIP1,2,-0.308,75.8,-1.08,113,inactive
BNIP1,3,1.34,109,0.832,97.5,inactive
LOC284009,1,1.19,106,0.871,93.8,inactive
LOC284009,2,0.966,101,0.535,98.1,inactive
LOC284009,3,0.218,86.2,0.0989,93.9,inactive
EEF1AKMT2,1,0.765,97.1,1.43,74.4,inactive
EEF1AKMT2,2,1.38,109,0.986,94.2,inactive
EEF1AKMT2,3,0.294,87.7,-0.558,114,inactive
CCDC38,1,-0.0721,80.5,1.16,66.3,inactive
CCDC38,2,-0.21,77.7,0.114,84.3,inactive
CCDC38,3,0.301,87.9,0.272,91.4,inactive
MYO7B,1,-0.984,62.3,-0.557,80.6,inactive
MYO7B,2,0.235,86.6,0.43,86.4,inactive
MYO7B,3,-0.24,77.1,0.267,80.3,inactive
TSLP,1,-0.96,62.8,-0.497,80,inactive
TSLP,2,2.48,131,1.25,105,inactive
TSLP,3,1.45,111,2.57,62.9,inactive
CEACAM16,1,0.259,87,0.392,87.7,inactive
CEACAM16,2,0.00374,82,0.258,85.6,inactive
CEACAM16,3,-0.532,71.3,-0.387,88.2,inactive
RPA1,1,0.00506,82,0.172,87.6,inactive
RPA1,2,0.522,92.3,0.123,99.8,inactive
RPA1,3,0.149,84.9,-0.0988,97.3,inactive
FKBP11,1,-1.61,49.8,-0.687,66.7,inactive
FKBP11,2,-0.119,79.5,-0.0629,90.3,inactive
FKBP11,3,0.589,93.6,0.557,90.3,inactive
CDKN1A,1,-0.218,77.5,-0.904,110,inactive
CDKN1A,2,0.943,101,0.797,91.2,inactive
CDKN1A,3,-0.0967,80,-0.566,104,inactive
MYLK2,1,1.5,112,0.806,101,inactive
MYLK2,2,-1.96,43,-1.41,69.6,inactive
MYLK2,3,1.06,103,0.0188,115,inactive
ART4,1,-0.0755,80.4,-0.302,97.3,inactive
ART4,2,-0.868,64.6,0.0954,70.4,inactive
ART4,3,-0.796,66,-0.359,81.1,inactive
GORASP2,1,-0.189,78.1,0.471,77.1,inactive
GORASP2,2,-0.0538,80.8,0.033,89.5,inactive
GORASP2,3,2.47,131,2.32,79.6,inactive
ACTL9,1,1.42,110,0.786,100,inactive
ACTL9,2,0.61,94,1.11,78.5,inactive
ACTL9,3,0.224,86.3,0.664,81,inactive
KLHDC1,1,0.976,101,0.687,94.5,inactive
KLHDC1,2,4.12,164,2.23,102,active
KLHDC1,3,0.669,95.2,0.305,98.2,inactive
UBR5,1,1.48,111,0.617,106,inactive
UBR5,2,0.0787,83.5,0.992,71.8,inactive
UBR5,3,-0.221,77.5,-0.0472,87.7,inactive
QTRT2,1,0.205,86,-0.258,103,inactive
QTRT2,2,0.432,90.5,0.407,90.8,inactive
QTRT2,3,1.04,103,-0.000218,115,inactive
OR8U1,1,-2.41,33.9,-0.0226,38.1,inactive
OR8U1,2,1.16,105,1.12,87.3,inactive
OR8U1,3,-0.453,72.9,0.408,73.1,inactive
GOLGB1,1,-0.0575,80.7,-0.734,109,inactive
GOLGB1,2,0.0106,82.1,-0.673,110,inactive
GOLGB1,3,2.03,122,0.713,113,inactive
PTPN13,1,0.396,89.8,1.15,74.1,inactive
PTPN13,2,1.11,104,0.0828,114,inactive
PTPN13,3,0.186,85.6,-0.233,102,inactive
TDRD10,1,-0.0688,80.5,-0.906,114,inactive
TDRD10,2,2.87,139,2.28,85.3,inactive
TDRD10,3,4.61,174,2.94,89.5,active
TET2,1,-0.554,70.9,-0.332,86.4,inactive
TET2,2,-2.72,27.7,-3.38,75.3,inactive
TET2,3,0.0725,83.3,0.461,82.5,inactive
ZCRB1,1,1.71,116,1.32,91.5,inactive
ZCRB1,2,-0.986,62.3,-0.951,89.4,inactive
ZCRB1,3,0.742,96.6,0.764,88.3,inactive
ORC4,1,0.49,91.6,0.0826,100,inactive
ORC4,2,-1.14,59.2,-1.62,101,inactive
ORC4,3,-1.15,59.1,0.215,62.4,inactive

9 entries already listed, ordered by “total luciferase, z-score”, descending.
gene,reagent,"total luciferase, z-score","total luciferase, % of control","luciferase per cell, z-score","viable cells, % of control",activity call
TDRD10,3,4.61,174,2.94,89.5,active
ZCRB1,1,1.71,116,1.32,91.5,inactive
ZCRB1,3,0.742,96.6,0.764,88.3,inactive
ORC4,1,0.49,91.6,0.0826,100,inactive
TET2,3,0.0725,83.3,0.461,82.5,inactive
TET2,1,-0.554,70.9,-0.332,86.4,inactive
ZCRB1,2,-0.986,62.3,-0.951,89.4,inactive
ORC4,2,-1.14,59.2,-1.62,101,inactive
TET2,2,-2.72,27.7,-3.38,75.3,inactive
